Patent publication US20260193326A1
Numbering of substitutions follows the chain as printed. These are yes or no findings as the source states them, for the method shown. Binding can be weak; no strength is given.

B1: A4-040 (VHH)
VHH: VQLQESGGGLVQPGGSLRLSCAASGRIFSINTMGWYRQAPGKQRELVATVTRGGSTNYADSVKGRFTISRDNAKNTVYLQMNSLRPEDTAVYYCHVDEIRQSSWTTSNLWGQGTQVTVSS
B2: A4-D2 (VHH)
chain: VQLQESGGGLVQAGGSLRLSCAASGRGFSINTMGWYRQAPGKQRELVAAVTRGGTTNYADSVKGRFTISRDNAKNTVYLQMNSLRPEDTAVYYCHVDEVRQSSWTTSNLWGQGTQVTVSSGGGGSGGGGSGGGGSVQLQESGGGLVQAGGSLRLSCAASGRGFSINTMGWYRQAPGKQRELVAAVTRGGTTNYADSVKGRFTISRDNAKNTVYLQMNSLRPEDTAVYYCHVDEVRQSSWTTSNLWGQGTQVTVSSGGGGSGGGGSGGGGSVQLQESGGGLVQAGGSLRLSCAASGRGFSINTMGWYRQAPGKQRELVAAVTRGGTTNYADSVKGRFTISRDNAKNTVYLQMNSLRPEDTAVYYCHVDEVRQSSWTTSNLWGQGTQVTVSSGGGGSGGGGSGGGGSVQLQESGGGLVQAGGSLRLSCAASGRGFSINTMGWYRQAPGKQRELVAAVTRGGTTNYADSVKGRFTISRDNAKNTVYLQMNSLRPEDTAVYYCHVDEVRQSSWTTSNLWGQGTQVTVSS
B3: A4-D3 (VHH)
chain: B2 chain with V11A, V146A, V281A, A418P
B4: A4-D4 (VHH)
chain: B2 chain with V11A, A148P, V281A, V416A
B5: A4-D5 (protein)
chain: VQLQESGGGLVQPGGSLRLSCVASGSSFSINTMGWYRRAPGKQRELVATVTRDGSTNYANSVKGRFTISRDNAKNTVYLQMNSLRPEDTAVYYCHVDEVRQSSWTTSNLWGQGTQVTVSSGGGGSGGGGSGGGGSVQLQESGGGLVQPGGSLRLSCVASGSSFSINTMGWYRRAPGKQRELVATVTRDGSTNYANSVKGRFTISRDNAKNTVYLQMNSLRPEDTAVYYCHVDEVRQSSWTTSNLWGQGTQVTVSSGGGGSGGGGSGGGGSVQLQESGGGLVQPGGSLRLSCVASGSSFSINTMGWYRQAPGKQRELVATVTRDGSTNYANSVKGRFTISRDNAKNTVYLQMNSLRPEDTAVYYCHVDEVRQSSWTTSNLWGQGTQVTVSSGGGGSGGGGSGGGGSVQLQESGGGLVQPGGSLRLSCVASGSSFSINTMGWYRRAPGKQRELVATVTRDGSTNYANSVKGRFTISRDNAKNTVYLQMNSLRPEDTAVYYCHVDEVRQSSWTTSNLWGQGTQVTVSS
B6: A4-H1 (VHH)
VHH: VQLVESGGGLVQPGGSLRLSCAASGRSFSINTMGWFRQAPGKGLEAVAIVTRGGSTYYADSVKGRFTISRDNSKNTLYLQMNSLRAEDTAVYYCHIDEVRQSSWTTSNIWGQGTLVTVSS
B7: A4-H2 (VHH)
VHH: B6 VHH with V4Q, E5A, L10F, G43E, L44R, A46F, I49V, L77V, V91T, L115Q
B8: A4-H3 (VHH)
VHH: VQLQASGGGFVQPGGSLRLSCAASGSIFSINLMGWFRQAPGKERELVAVITPGGNTYYADSVKGRFTISRDNSKNTVYLQMNSLRAEDTATYYCHVDEVRQSSWTTSNLWGQGTQVTVSS
B9: A4-H4 (VHH)
VHH: B8 VHH with Q4V, A5E, F10L, E43G, R44L, V49I, T91V, Q115L

Each binder was assayed against AAV8 (adeno-associated virus serotype 8 (AAV8)) (assay: sandwich ELISA, A4-040 coated as capture ligand, AAV8 standards, detection with HRP-conjugated A4-021).

**Q.** With B1 as the binder, how does the binding read?
**A.** binds

The binders below were run against AAV8 (adeno-associated virus serotype 8 (AAV8)) (assay: SPR, AAV amine-coupled to CM5 chip).

**Q.** With B2 as the binder, how does the binding read?
**A.** binds

**Q.** For B3, which binding is on record?
**A.** binds

**Q.** How did the binding turn out when B4 was run?
**A.** binds

**Q.** For B5, which binding is on record?
**A.** binds

These binders were tested against AAV9 (adeno-associated virus serotype 9 (AAV9)) (assay: SPR, AAV amine-coupled to CM5 chip).

**Q.** For B2, which binding is on record?
**A.** binds

**Q.** For B3, which binding is on record?
**A.** binds

**Q.** For B4, which binding is on record?
**A.** binds

**Q.** With B5 as the binder, how does the binding read?
**A.** binds

The binders below were run against AAV5 (adeno-associated virus serotype 5 (AAV5)) (assay: SPR, AAV amine-coupled to CM5 chip).

**Q.** Which binding does the source give for B2 here?
**A.** binds

**Q.** For B3, which binding is on record?
**A.** binds

**Q.** How did the binding turn out when B4 was run?
**A.** binds

**Q.** With B5 as the binder, how does the binding read?
**A.** binds

These binders were tested against AAV8 (adeno-associated virus serotype 8 (AAV8)) (assay: SPR, recombinant AAV particles amine-coupled to CM5 chip).

**Q.** How did the binding turn out when B6 was run?
**A.** binds

**Q.** For B7, which binding is on record?
**A.** binds

**Q.** For B8, which binding is on record?
**A.** binds

**Q.** For B9, which binding is on record?
**A.** binds

The binders below were run against AAV9 (adeno-associated virus serotype 9 (AAV9)) in the same assay as above.

**Q.** Which binding does the source give for B6 here?
**A.** binds

**Q.** Which binding does the source give for B7 here?
**A.** binds

**Q.** Which binding does the source give for B8 here?
**A.** binds

**Q.** Which binding does the source give for B9 here?
**A.** binds

What follows are binders tested against AAV5 (adeno-associated virus serotype 5 (AAV5)) in the same assay as above.

**Q.** B6 was tested. Which binding did it give?
**A.** binds

**Q.** For B7, which binding is on record?
**A.** binds

**Q.** Which binding does the source give for B8 here?
**A.** binds

**Q.** With B9 as the binder, how does the binding read?
**A.** binds
